Laboratory results published in US5621010A, “Urea derivatives and their use as ACAT inhibitors” (Nisshin Flour Milling Co., Ltd., priority 1993, dated 1997).
For at least one compound, name, drawing or mass did not settle the structure.

How the values were obtained:
[1] = system: ACAT (liver microsome fractions of male rabbits); assay: ACAT inhibitory activity: formation of labelled cholesteryl esters from [1-14C]oleoyl-CoA and endogenous cholesterol; format: biochemical, rabbit; settings: compound added at 10^-7 M
Procedure: The enzyme preparation, ACAT was prepared from liver microsme fractions of male rabbits according to the method of E. E. Largis et al. (Journal of Lipid Research, Vol. 30, pages 681-690, 1989). The activity was calculated by assaying the amount of the labelled cholesteryl esters formed from [1-^14 C]oleoyl-CoA and endogenous cholesterol according to the method of Kazuichi NATORI et al. (Japan J. Pharmacol., Vol. 42, pages 517-523, 1986).
The result is shown in Table 1, in which percent inhibition of the formation of the labelled cholesteryl esters with a compound added at 10^-7 M is indicated as index for the ACAT inhibitory activity.

[2] = system: Human LDL; assay: Antioxidative activity: inhibition of MDA formation from LDL incubated with cupric sulfate; format: biochemical; settings: compound 10^-5 M; cupric sulfate 5×10^-6 M; 5 hrs; compared with control
Procedure: Human LDL was incubated in the presence of cupric sulfate (5×10^-6 M) and in the presence or absence of a compound (10^-5 M) for 5 hrs. After the incubation, the peroxidation of low-density lipoproteins (LDL) is evaluated by the formation of malondialdehyde (MDA), which is a sort of lipid peroxides according to the method of Simon J. T. Mao et al. (J. Med. Chem., Vol. 34, pages 298-302, 1991). Activity of the compound is shown by percent inhibition of the MDA formation as compared with control.

Row | Compound | ACAT Inhibition [1] | Antioxidant Activity (percent inhibition of the MDA formation) [2]
1 | CC(C)(C)c1cc(CCc2ccccc2NC(=O)NC23CC4CC(CC(C4)C2)C3)cc(C(C)(C)C)c1O [Example 19, N-[2-(3,5-di-tert-butyl-4-hydroxyphenethyl)phenyl]-N'-adamantylurea] | 100% | 94%
2 | CCOC(=O)[C@H](NC(=O)Nc1ccccc1CCc1cc(C(C)(C)C)c(O)c(C(C)(C)C)c1)c1ccccc1 [Example 72, N-[2-(3,5-di-tert-butyl-4-hydroxyphenethyl)phenyl]-N'-(α-ethoxycarbonyl)benzylurea] | 97% | 97%
